Experimental data published in PubChem BioAssay AID493014 (National Center for Advancing Translational Sciences (NCATS), 2011).
The list shows a part of the results. The main result of the screen is listed elsewhere. These columns were measured beside it and carry no call. The list favours compounds with an active or inconclusive main result. The note in brackets gives the kind of curve behind each potency; many fits are weak.

Test: qHTS Assay to Find Inhibitors of Chronic Active B-Cell Receptor Signaling
Conditions: ABC-DLBCL IkBa-CBG/CBR reporter, luminescence ratio (green luciferase fused to IkBa over red control in TMD8 lymphoma cells), 4 h
How it was run: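 TMD8 ABC-DLBCL cells carrying doxycycline-inducible green luciferase fused to IkappaBalpha plus unfused red luciferase were exposed to compounds (up to 46 uM) for 4 hrs at 37C. Activity came from the overlap-corrected green/red luminescence ratio.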

[1] = measured here: CBR red luminescence, cell number
[2] = measured here: IkBa-CBG green luminescence

| SMILES | AC50 [1] | AC50 [2] |
| --- | --- | --- |
| CCc1ccc2c(c1)[C@H]1OCC[C@H]1[C@@H](c1cccs1)N2 | 6.51 µM [rising, single point] | – |
| CCC1CCCCN1C(=O)Cn1c(C(=O)OC)cc2sc(Cl)cc21 (stereo not drawn) | – | 6.51 µM [rising, single point] |
| CC1CCCN(C(=O)Cn2c(-c3nonc3N)nc3ccccc32)C1 (stereo not drawn) | 17.8 µM [falling, single point] | – |
| Cc1ccc(NC(=O)N2CCN(C)CC2)cc1NC(=O)N1CCN(C)CC1 | 14.1 µM [rising, single point] | – |
| C=CCSc1n[nH]c(-c2ccc(OC)cc2)n1 | 14.6 µM [falling, partial curve] | – |
| O=C(Nc1ccc([N+](=O)[O-])cc1Cl)c1cc(Cl)ccc1O | 0.366 µM [falling, full curve] | – |
| O=C(Cc1cccc2ccccc12)Nc1ccc2c(c1)C(=O)NC2=O | 7.94 µM [falling, partial curve, poor fit] | – |
| CCN1CCN(S(=O)(=O)c2ccc(Cl)c(C(=O)NC3CC3)c2)CC1 | 6.51 µM [rising, partial curve, poor fit] | – |
| COc1ccccc1NC(=O)CSc1nc2nc(C)cc(C)c2c(=O)[nH]1 | 13 µM [falling, partial curve, poor fit] | – |
| COc1cccc(Nc2nc(N)nc(-c3oc4ccccc4c3C)n2)c1 | 1.58 µM [falling, full curve] | – |
| c1ccc(-c2csc3ncnc(N4CCOCC4)c23)cc1 | 22.4 µM [rising, partial curve, poor fit] | – |
| O=C(Nc1ccccc1)C1=C[C@H](c2ccc(Br)cc2)C[C@H](OCc2ccc(CO)cc2)O1 | 35.5 µM [falling, single point] | – |
| Cc1nc(NC(=O)c2c(-c3ccccc3Cl)noc2C)sc1C | 1.78 µM [falling, partial curve] | 3.16 µM [rising, full curve, poor fit] |
| CC(C)=NOCc1ccc(-c2cn([C@@H]3COC[C@H]3O)nn2)cc1 | 25.9 µM [rising, single point] | – |
| Cc1nc2nc(C)c(NS(=O)(=O)c3ccc(Cl)s3)c(=O)n2[nH]1 | 1 µM [falling, full curve, poor fit] | – |
| O=C(NNc1cccc([N+](=O)[O-])c1)/C(=C\c1cccnc1)NC(=O)c1ccccc1 | 15.8 µM [rising, single point] | – |

A run of entries from further up, for reference:

| SMILES | AC50 [1] | AC50 [2] |
| --- | --- | --- |
| Cc1nc2nc(C)c(NS(=O)(=O)c3ccc(Cl)s3)c(=O)n2[nH]1 | 1 µM [falling, full curve, poor fit] | – |
| O=C(NNc1cccc([N+](=O)[O-])c1)/C(=C\c1cccnc1)NC(=O)c1ccccc1 | 15.8 µM [rising, single point] | – |

The listing continues:

| SMILES | AC50 [1] | AC50 [2] |
| --- | --- | --- |
| Clc1cccc(CSc2nccn2-c2ccccc2)c1 | 0.112 µM [falling, full curve, poor fit] | – |
| O=C1CC(NS(=O)(=O)c2cccnc2)CN1c1ccc(F)cc1 (stereo not drawn) | 18.4 µM [rising, partial curve] | – |
| COC(=O)Nc1c(-c2ccccc2)nc2ccccn12 | – | 5.8 µM [rising, partial curve, poor fit] |
| COc1ccc(-c2nnc(-c3cc(OC)c(OC)c(OC)c3)o2)cc1OC | 14.6 µM [rising, partial curve, poor fit] | – |
| O=C(CCN1CCN(Cc2ccccc2)CC1)NNC(=O)Nc1cccc(C(F)(F)F)c1 | 22.4 µM [falling, single point] | – |
| Cc1cc(C)c(S(C)(=O)=O)c(Oc2cccc(C(F)(F)F)c2)n1 | 11.2 µM [rising, partial curve] | – |
| COc1cccc(NC(=O)CNC(=O)N2CC(=O)Nc3ccccc32)c1 | 10 µM [falling, partial curve, poor fit] | – |
| COc1ccc2c(c1)[C@H]1[C@H](CO2)[C@H](c2ccccc2)[C@]2(C)C(=O)Nc3ccc(C)cc3C(=O)N12 | 5.8 µM [falling, full curve] | – |
| Cc1cc2c(c(=O)n1CCN(C)C)C(c1ccc(Cl)cc1)C(C#N)=C(N)O2 (stereo not drawn) | 20.6 µM [falling, single point] | – |
| COc1ccc(OC)c(NS(=O)(=O)c2ccc3c(c2)n(C)c(=O)n3C)c1 | 3.66 µM [rising, full curve, poor fit] | – |
| Cc1csc(NC(=O)COc2ccc3c(C)cc(=O)oc3c2)n1 | 0.326 µM [falling, full curve, poor fit] | – |
| CCOC(=O)C1=C(C)NC(=O)NC1c1cccnc1 (stereo not drawn) | 17.8 µM [rising, single point] | – |
| Cc1ccccc1NC(=O)c1sc2nc3c(c(-c4ccco4)c2c1N)CCC3 | 1.41 µM [falling, full curve] | – |
| COc1ccccc1CNC(=O)CSc1n[nH]c(N)n1 | 12.6 µM [rising, single point] | – |
| c1ccc(Nc2nc(N3CCOCC3)nc(N3CCOCC3)n2)cc1 | 4.61 µM [falling, partial curve, poor fit] | – |
| O=C(Nc1ccc(Cl)cc1)c1cc(Br)ccc1OCC(=O)N1CCOCC1 | 2.24 µM [falling, full curve, poor fit] | – |
